{"source": "paper PMC9129000", "molecular_target": "T1, EIN3 (UniProt O24606)", "T1 sequence": "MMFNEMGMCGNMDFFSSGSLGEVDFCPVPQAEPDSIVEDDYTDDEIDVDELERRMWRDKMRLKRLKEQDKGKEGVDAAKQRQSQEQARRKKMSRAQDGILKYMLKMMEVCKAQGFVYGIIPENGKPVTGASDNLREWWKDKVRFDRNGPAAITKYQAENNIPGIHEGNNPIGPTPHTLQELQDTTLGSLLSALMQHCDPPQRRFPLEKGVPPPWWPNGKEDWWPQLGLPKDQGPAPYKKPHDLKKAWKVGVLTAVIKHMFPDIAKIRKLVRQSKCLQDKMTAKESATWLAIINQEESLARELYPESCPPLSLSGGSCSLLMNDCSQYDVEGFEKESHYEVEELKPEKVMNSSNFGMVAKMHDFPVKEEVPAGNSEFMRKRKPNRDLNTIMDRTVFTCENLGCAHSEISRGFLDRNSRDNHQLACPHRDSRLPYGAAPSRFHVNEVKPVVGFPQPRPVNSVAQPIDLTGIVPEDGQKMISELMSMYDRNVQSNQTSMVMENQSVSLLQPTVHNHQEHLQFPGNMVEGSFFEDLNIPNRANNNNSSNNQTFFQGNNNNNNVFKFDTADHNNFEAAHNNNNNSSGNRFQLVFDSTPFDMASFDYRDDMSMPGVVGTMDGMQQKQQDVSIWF", "experiment": "two-hybrid; GAL4 AD and BD fusions co-transformed in yeast strain AH109; serial dilutions spotted on SD-LW and SD-LWH media; 30°C", "note": "Results are given in words; binding and its absence hold for the method and conditions named. Some results given as binding are weak or reduced against the parent protein; the word gives no strength."}
{"binder": "F-box protein EBF2 (protein, UniProt Q708Y0 1-623) MSGIFRFSGDEDCLLGGSMYLSPGSCPGVYYPARKRLRVAATSFYSGFEEKQTSIDVLPEECLFEILRRLPSGQERSACACVSKHWLNLLSSISRSEVNESSVQDVEEGEGFLSRSLEGKKATDLRLAAIAVGTSSRGGLGKLQIRGSGFESKVTDVGLGAVAHGCPSLRIVSLWNLPAVSDLGLSEIARSCPMIEKLDLSRCPGITDSGLVAIAENCVNLSDLTIDSCSGVGNEGLRAIARRCVNLRSISIRSCPRIGDQGVAFLLAQAGSYLTKVKLQMLNVSGLSLAVIGHYGAAVTDLVLHGLQGVNEKGFWVMGNAKGLKKLKSLSVMSCRGMTDVGLEAVGNGCPDLKHVSLNKCLLVSGKGLVALAKSALSLESLKLEECHRINQFGLMGFLMNCGSKLKAFSLANCLGISDFNSESSLPSPSCSSLRSLSIRCCPGFGDASLAFLGKFCHQLQDVELCGLNGVTDAGVRELLQSNNVGLVKVNLSECINVSDNTVSAISVCHGRTLESLNLDGCKNITNASLVAVAKNCYSVNDLDISNTLVSDHGIKALASSPNHLNLQVLSIGGCSSITDKSKACIQKLGRTLLGLNIQRCGRISSSTVDTLLENLWRCDILY", "values": [{"measurement": "binding", "value": "binds"}]}
